# Data from the supplement of paper PMC8728848.
# The other results are listed elsewhere or left out.
# B1: PX14343E-bfa-545-24-545 (Bacteroides fragilis) (protein)
# chain: LDRYPQEELSDGSFWKTPDDANKVVSDLYGYLSTWDQDNDINSDNATMGIKWAAGNVSKGIYDPADQGWSGDYANVRQCNLILSKIDEIPDYPEADKTKALGQVYFFRAYIYFNLIRSFGDVPYIDKPLDLKDMEGITRMPRAEVYEKIMADFDKAIAALPTEWGASDYGRVTKGAAMAMKARAALYYGNWDTAATEAKNVMDLGLYELYDKDNTGKYAELFWEKADGCDEFILVTQFNYPDKTHYLMGWECFPTKGWGGMNPTQSLVDAFEDSEGAPISKSKIYDPTDPFKNRDPRLEVDILHDGEEMYGVTIKVAPLASSGSTGINQHNDATETGYYGQKWLDPSLDPLSDGWNMGKDWVHIRYAEVLLTYAEAKNELQGLDPEAFDAVNQVRRRVGMPELQNTDPSKPTYCATQDDLRQRIRNEWRVEFCLEGGKRMWDIRRWGIAKDVLNAPFEGLKYKIVDNPNDPDKKVDGGKMCILYQGDPIILSGSRYSDNNYLFPVPQSEIDLNPALTQNPGY
# What was measured:
# Experiment in all cases: glycan array binding signal (z-score within array); higher = stronger binding
# Conditions in all cases: glycan notation: IUPAC condensed, linker removed
# [1] = target: Neu5Ac(a2-6)Gal(b1-3)GlcNAc(b1-3)[Gal(b1-4)GlcNAc(b1-6)]Gal(b1-4)Glc
# Method in brief: (§1)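 The binding signal is a Z-score computed within each array. Data were drawn from 3228 arrays in the Consortium for Functional Glycomics database, restricted to those with a known protein sequence. Scores were averaged over arrays of the same protein sequence at different concentrations or buffers, and over linkers, and negative values can be taken as non-binding.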
# Neu5Ac(a2-6)Gal(b1-4)Glc = target: Neu5Ac(a2-6)Gal(b1-4)Glc
# Method in brief: as §1
# [2] = target: Neu5Ac(a2-6)Gal(b1-4)GlcNAc
# Method in brief: as §1
# [3] = target: Neu5Ac(a2-6)Gal(b1-4)GlcNAc(b1-2)Man
# Method in brief: as §1
# [4] = target: Neu5Ac(a2-6)Gal(b1-4)GlcNAc(b1-2)Man(a1-3)Man(b1-4)GlcNAc(b1-4)GlcNAc
# Method in brief: as §1
# [5] = target: Neu5Ac(a2-6)Gal(b1-4)GlcNAc(b1-2)Man(a1-3)[Gal(b1-4)GlcNAc(b1-2)Man(a1-6)]Man(b1-4)GlcNAc(b1-4)GlcNAc
# Method in brief: as §1
# [6] = target: Neu5Ac(a2-6)Gal(b1-4)GlcNAc(b1-2)Man(a1-3)[GlcNAc(b1-2)Man(a1-6)]Man(b1-4)GlcNAc(b1-4)GlcNAc
# Method in brief: as §1
# [7] = target: Neu5Ac(a2-6)Gal(b1-4)GlcNAc(b1-2)Man(a1-3)[GlcNAc(b1-4)][Neu5Ac(a2-6)Gal(b1-4)GlcNAc(b1-2)Man(a1-6)]Man(b1-4)GlcNAc(b1-4)GlcNAc
# Method in brief: as §1
# [8] = target: Neu5Ac(a2-6)Gal(b1-4)GlcNAc(b1-2)Man(a1-3)[Man(a1-6)]Man(b1-4)GlcNAc(b1-4)GlcNAc
# Method in brief: as §1
# [9] = target: Neu5Ac(a2-6)Gal(b1-4)GlcNAc(b1-2)Man(a1-3)[Neu5Ac(a2-3)Gal(b1-4)GlcNAc(b1-2)Man(a1-6)]Man(b1-4)GlcNAc(b1-4)GlcNAc
# Method in brief: as §1
# [10] = target: Neu5Ac(a2-6)Gal(b1-4)GlcNAc(b1-2)Man(a1-3)[Neu5Ac(a2-6)Gal(b1-4)GlcNAc(b1-2)Man(a1-6)]Man(b1-4)GlcNAc(b1-4)GlcNAc
# Method in brief: as §1
# [11] = target: Neu5Ac(a2-6)Gal(b1-4)GlcNAc(b1-2)Man(a1-3)[Neu5Ac(a2-6)Gal(b1-4)GlcNAc(b1-2)Man(a1-6)]Man(b1-4)GlcNAc(b1-4)[Fuc(a1-6)]GlcNAc
# Method in brief: as §1
# [12] = target: Neu5Ac(a2-6)Gal(b1-4)GlcNAc(b1-2)Man(a1-6)Man(b1-4)GlcNAc(b1-4)GlcNAc
# Method in brief: as §1
# [13] = target: Neu5Ac(a2-6)Gal(b1-4)GlcNAc(b1-2)Man(a1-6)[Gal(b1-4)GlcNAc(b1-2)Man(a1-3)]Man(b1-4)GlcNAc(b1-4)GlcNAc
# Method in brief: as §1
# [14] = target: Neu5Ac(a2-6)Gal(b1-4)GlcNAc(b1-2)Man(a1-6)[GlcNAc(b1-2)Man(a1-3)]Man(b1-4)GlcNAc(b1-4)GlcNAc
# Method in brief: as §1
# [15] = target: Neu5Ac(a2-6)Gal(b1-4)GlcNAc(b1-2)Man(a1-6)[Man(a1-3)]Man(b1-4)GlcNAc(b1-4)GlcNAc
# Method in brief: as §1
# [16] = target: Neu5Ac(a2-6)Gal(b1-4)GlcNAc(b1-2)[Neu5Ac(a2-6)Gal(b1-4)GlcNAc(b1-4)]Man(a1-3)[GlcNAc(b1-4)][Neu5Ac(a2-6)Gal(b1-4)GlcNAc(b1-2)[Neu5Ac(a2-6)Gal(b1-4)GlcNAc(b1-6)]Man(a1-6)]Man(b1-4)GlcNAc(b1-4)GlcNAc
# Method in brief: as §1
# [17] = target: Neu5Ac(a2-6)Gal(b1-4)GlcNAc(b1-2)[Neu5Ac(a2-6)Gal(b1-4)GlcNAc(b1-4)]Man(a1-3)[GlcNAc(b1-4)][Neu5Ac(a2-6)Gal(b1-4)GlcNAc(b1-4)Man(a1-6)]Man(b1-4)GlcNAc(b1-4)GlcNAc
# Method in brief: as §1
# [18] = target: Neu5Ac(a2-6)Gal(b1-4)GlcNAc(b1-2)[Neu5Ac(a2-6)Gal(b1-4)GlcNAc(b1-6)]Man(a1-6)[Neu5Ac(a2-6)Gal(b1-4)GlcNAc(b1-2)Man(a1-3)][GlcNAc(b1-4)]Man(b1-4)GlcNAc(b1-4)GlcNAc
# Method in brief: as §1
# [19] = target: Neu5Ac(a2-6)Gal(b1-4)GlcNAc(b1-3)Gal(b1-3)GlcNAc
# Method in brief: as §1
# [20] = target: Neu5Ac(a2-6)Gal(b1-4)GlcNAc(b1-3)Gal(b1-4)GlcNAc
# Method in brief: as §1
# [21] = target: Neu5Ac(a2-6)Gal(b1-4)GlcNAc(b1-3)Gal(b1-4)GlcNAc(b1-2)Man(a1-3)[Neu5Ac(a2-6)Gal(b1-4)GlcNAc(b1-3)Gal(b1-4)GlcNAc(b1-2)Man(a1-6)]GalNAc
# Method in brief: as §1
# [22] = target: Neu5Ac(a2-6)Gal(b1-4)GlcNAc(b1-3)Gal(b1-4)GlcNAc(b1-3)Gal(b1-4)GlcNAc
# Method in brief: as §1
# [23] = target: Neu5Ac(a2-6)Gal(b1-4)GlcNAc(b1-3)Gal(b1-4)GlcNAc(b1-3)Gal(b1-4)GlcNAc(b1-2)Man(a1-3)[Neu5Ac(a2-6)Gal(b1-4)GlcNAc(b1-3)Gal(b1-4)GlcNAc(b1-3)Gal(b1-4)GlcNAc(b1-2)Man(a1-6)]GalNAc
# Method in brief: as §1
# [24] = target: Neu5Ac(a2-6)Gal(b1-4)GlcNAc(b1-3)Gal(b1-4)GlcNAc(b1-3)GalNAc
# Method in brief: as §1
# [25] = target: Neu5Ac(a2-6)Gal(b1-4)GlcNAc(b1-3)Gal(b1-4)GlcNAc(b1-3)[Neu5Ac(a2-6)Gal(b1-4)GlcNAc(b1-3)Gal(b1-4)GlcNAc(b1-6)]GalNAc
# Method in brief: as §1
# [26] = target: Neu5Ac(a2-6)Gal(b1-4)GlcNAc(b1-3)Gal(b1-4)GlcNAc(b1-6)[Gal(b1-3)]GalNAc
# Method in brief: as §1
# [27] = target: Neu5Ac(a2-6)Gal(b1-4)GlcNAc(b1-3)Gal(b1-4)[Fuc(a1-3)]GlcNAc(b1-3)Gal(b1-4)[Fuc(a1-3)]GlcNAc
# Method in brief: as §1
# [28] = target: Neu5Ac(a2-6)Gal(b1-4)GlcNAc(b1-3)GalNAc
# Method in brief: as §1
# [29] = target: Neu5Ac(a2-6)Gal(b1-4)GlcNAc(b1-3)[Neu5Ac(a2-6)Gal(b1-4)GlcNAc(b1-6)]GalNAc
# Method in brief: as §1
# [30] = target: Neu5Ac(a2-6)Gal(b1-4)GlcNAc(b1-6)GalNAc
# Method in brief: as §1
# [31] = target: Neu5Ac(a2-6)Gal(b1-4)GlcNAc(b1-6)[Gal(b1-3)GlcNAc(b1-3)]Gal(b1-4)Glc
# Method in brief: as §1
# [32] = target: Neu5Ac(a2-6)Gal(b1-4)GlcNAc(b1-6)[Gal(b1-3)]GalNAc
# Method in brief: as §1
# [33] = target: Neu5Ac(a2-6)Gal(b1-4)GlcNAc6S
# Method in brief: as §1
# Neu5Ac(a2-6)GalNAc = target: Neu5Ac(a2-6)GalNAc
# Method in brief: as §1
# [34] = target: Neu5Ac(a2-6)GalNAc(b1-4)GlcNAc
# Method in brief: as §1
# [35] = target: Neu5Ac(a2-6)GalNAc(b1-4)GlcNAc6S
# Method in brief: as §1
# [36] = target: Neu5Ac(a2-6)GlcNAc(b1-4)GlcNAc
# Method in brief: as §1
binder,measurement,setting,value
B1,glycan array binding signal (z-score),[1],-0.197
same,glycan array binding signal (z-score),Neu5Ac(a2-6)Gal(b1-4)Glc,-0.096
same,glycan array binding signal (z-score),[2],0.37
same,glycan array binding signal (z-score),[3],-0.34
same,glycan array binding signal (z-score),[4],-0.273
same,glycan array binding signal (z-score),[5],1.11
same,glycan array binding signal (z-score),[6],-0.141
same,glycan array binding signal (z-score),[7],-0.087
same,glycan array binding signal (z-score),[8],-0.928
same,glycan array binding signal (z-score),[9],0.517
same,glycan array binding signal (z-score),[10],-0.641
same,glycan array binding signal (z-score),[11],0.294
same,glycan array binding signal (z-score),[12],-0.81
same,glycan array binding signal (z-score),[13],-0.41
same,glycan array binding signal (z-score),[14],0.074
same,glycan array binding signal (z-score),[15],-0.779
same,glycan array binding signal (z-score),[16],0.142
same,glycan array binding signal (z-score),[17],0.176
same,glycan array binding signal (z-score),[18],0.48
same,glycan array binding signal (z-score),[19],-0.391
same,glycan array binding signal (z-score),[20],-0.139
same,glycan array binding signal (z-score),[21],1.12
same,glycan array binding signal (z-score),[22],-0.438
same,glycan array binding signal (z-score),[23],1.25
same,glycan array binding signal (z-score),[24],-0.076
same,glycan array binding signal (z-score),[25],2.92
same,glycan array binding signal (z-score),[26],-0.008
same,glycan array binding signal (z-score),[27],0.319
same,glycan array binding signal (z-score),[28],0.064
same,glycan array binding signal (z-score),[29],2.89
same,glycan array binding signal (z-score),[30],0.56
same,glycan array binding signal (z-score),[31],-0.484
same,glycan array binding signal (z-score),[32],-0.085
same,glycan array binding signal (z-score),[33],-0.277
same,glycan array binding signal (z-score),Neu5Ac(a2-6)GalNAc,-0.291
same,glycan array binding signal (z-score),[34],0.426
same,glycan array binding signal (z-score),[35],0.135
same,glycan array binding signal (z-score),[36],-0.557

# As a working copy, part of the list above.
binder,measurement,setting,value
B1,glycan array binding signal (z-score),Neu5Ac(a2-6)Gal(b1-4)Glc,-0.096
same,glycan array binding signal (z-score),[2],0.37
